These are yes or no findings as the source states them, for the method shown. Binding seen in cells or lysates may run through a third protein.

Amino acid sequences for entries named in this document (tags omitted).
UniProt Q13114: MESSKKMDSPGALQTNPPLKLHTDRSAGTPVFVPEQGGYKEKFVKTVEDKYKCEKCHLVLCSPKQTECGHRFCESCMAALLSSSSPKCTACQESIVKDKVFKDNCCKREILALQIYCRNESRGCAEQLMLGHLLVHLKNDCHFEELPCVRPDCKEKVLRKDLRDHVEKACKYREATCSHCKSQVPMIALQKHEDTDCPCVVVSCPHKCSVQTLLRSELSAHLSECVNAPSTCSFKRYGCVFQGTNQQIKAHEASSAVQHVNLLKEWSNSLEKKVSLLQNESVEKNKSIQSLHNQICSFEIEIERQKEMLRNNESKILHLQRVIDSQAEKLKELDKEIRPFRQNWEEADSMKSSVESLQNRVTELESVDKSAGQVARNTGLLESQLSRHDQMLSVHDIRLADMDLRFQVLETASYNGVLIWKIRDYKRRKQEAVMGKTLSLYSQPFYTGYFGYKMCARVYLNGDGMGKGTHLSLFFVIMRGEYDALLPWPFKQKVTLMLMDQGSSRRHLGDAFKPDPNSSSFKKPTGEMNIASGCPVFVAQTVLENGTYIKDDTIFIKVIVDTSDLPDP
UniProt Q9Y4K3: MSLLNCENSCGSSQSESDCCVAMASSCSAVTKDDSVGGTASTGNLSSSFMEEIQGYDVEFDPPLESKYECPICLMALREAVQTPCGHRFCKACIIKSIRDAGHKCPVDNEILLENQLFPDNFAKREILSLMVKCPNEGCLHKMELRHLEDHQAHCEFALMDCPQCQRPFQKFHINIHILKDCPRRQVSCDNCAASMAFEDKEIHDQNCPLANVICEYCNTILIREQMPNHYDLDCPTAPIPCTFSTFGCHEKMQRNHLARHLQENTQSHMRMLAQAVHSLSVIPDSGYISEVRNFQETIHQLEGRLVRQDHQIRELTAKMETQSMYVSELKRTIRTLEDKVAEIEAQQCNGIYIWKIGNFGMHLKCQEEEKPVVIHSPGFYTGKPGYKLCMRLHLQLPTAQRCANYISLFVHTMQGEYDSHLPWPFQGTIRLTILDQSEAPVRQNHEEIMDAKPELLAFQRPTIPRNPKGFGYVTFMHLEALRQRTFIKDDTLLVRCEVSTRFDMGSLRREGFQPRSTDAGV

This experiment has as its target ROP38I with a C-terminal HA-FLAG epitope tag (Toxoplasma gondii (type I, RH strain)) (UniProt S8FZ79). The experiment can be described thus: co-IP; HA immunoprecipitation (magnetic beads) from lysates of tetracycline-induced TREX-293 GRA15II or ROP38I cells; immunoblot with TRAF2, TRAF3 and TRAF6 antibodies. (In general: A western blot detects proteins with antibodies after separation by electrophoresis.)

On to “TNF receptor-associated factor 3 (TRAF3) (from UniProt Q13114 1-568)”, for which the binding result is listed as “no binding”.

Regarding “TNF receptor-associated factor 6 (TRAF6) (from UniProt Q9Y4K3 1-522)”, the binding entry is reported as “no binding”.

The record behind these values is PMC6635525.
